# Source: PubChem BioAssay AID200 (DTP/NCI, 2004)
# The list is a part of this screen's results and no random one: it is rich in T/C values a quarter to a half above the control, in often repeated tests (any T/C) and in doses without a T/C. Further doses and runs are listed elsewhere. T/C gives the treated animals as a percentage of the vehicle group. Some doses have a count of surviving animals in place of a T/C: the source holds a T/C of zero for them, seemingly a mark for toxic or unscored doses. Some doses without a T/C left all or most animals alive at the check, yet need not have been tolerated: the source hardly ever lists a survival T/C far under the control, and the zero likely stands for such cases as well. Survivors were counted at the toxicity check, usually on the fifth day, unless a day is given; later deaths do not show. Schedules are NCI's codes, taken here to give the interval after Q, in days (D) or hours (H), and the number of doses after X. Some doses were run more than once; the values are given in rising order. Where survival is the endpoint, this PubChem deposit counts one and a half times the control or more as active, and values a quarter to a half above the control carry no call in these data; other NCI protocols may use other cut-offs. Some T/C values are followed by the survivors on the day toxicity was checked, most often the fifth; without a count, all were alive then. Counts like (3×) count equal records among those shown.
# Tested on: B6C3F1 mice, B16 melanoma ip, median survival T/C
# Assay: NCI In Vivo Anticancer Drug Screen. Data for tumor model B16 Melanoma (intraperitoneal) in B6C3F1 mice
# Conditions: T/C endpoint: median survival time, higher T/C = longer survival
# In short: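 Transplantable tumor in mice; treated vs vehicle control groups; survival or tumor size measured; value = T/C ratio.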
# [1] = dose: 25.0 mg/kg/injection, schedule: Q01DX009 (ip), vehicle: saline with Tween-80
# [2] = dose: 200.0 mg/kg/injection, schedule: Q01DX009 (ip), vehicle: saline with Tween-80
# [3] = dose: 400.0 mg/kg/injection, schedule: Q01DX009 (ip), vehicle: saline with Tween-80
# [4] = dose: 50.0 mg/kg/injection, schedule: Q01DX009 (ip), vehicle: saline with Tween-80
# [5] = dose: 100.0 mg/kg/injection, schedule: Q01DX009 (ip), vehicle: saline with Tween-80
# [6] = dose: 20.0 mg/kg/injection, schedule: Q01DX009 (ip), vehicle: saline
# [7] = dose: 50.0 mg/kg/injection, schedule: Q01DX009 (ip), vehicle: Klucel (hydroxypropylcellulose) (HPC)
# [8] = dose: 8.0 mg/kg/injection, schedule: Q01DX009 (ip), vehicle: sodium bicarbonate
# [9] = dose: 16.0 mg/kg/injection, schedule: Q01DX009 (ip), vehicle: sodium bicarbonate
smiles,measurement,setting,value
CN(Cc1cnc2nc(N)nc(N)c2n1)c1c(Cl)cc(C(=O)NC(CCC(=O)O)C(=O)O)cc1Cl (stereo unspecified),survivor count,"dose: 50.0 mg/kg/injection, schedule: Q01DX009 (ip), vehicle: saline",10 of 10
same,survivor count,"dose: 100.0 mg/kg/injection, schedule: Q01DX009 (ip), vehicle: saline",10 of 10
CNC(=S)C#N,survivor count,"dose: 50.0 mg/kg/injection, schedule: Q01DX009 (ip), vehicle: saline + Tween-80 + alcohol",9 of 10
same,survivor count,"dose: 100.0 mg/kg/injection, schedule: Q01DX009 (ip), vehicle: saline + Tween-80 + alcohol",5 of 10
same,survivor count,"dose: 200.0 mg/kg/injection, schedule: Q01DX009 (ip), vehicle: saline + Tween-80 + alcohol",0 of 10
COC1CC(C)C(OC)C2=CC(=O)C=C(NC(=O)/C(C)=C/C=C\C(C)C(OC(N)=O)/C(C)=C\C(C)C1OC)C2=O (stereo unspecified),T/C,"dose: 2.5 mg/kg/injection, schedule: Q01DX009 (ip), vehicle: saline + alcohol",128 % of control
same,T/C,"dose: 5.0 mg/kg/injection, schedule: Q01DX009 (ip), vehicle: saline + alcohol",141 % of control
same,survivor count,"dose: 10.0 mg/kg/injection, schedule: Q01DX009 (ip), vehicle: saline + alcohol",7 of 10
same,survivor count,"dose: 20.0 mg/kg/injection, schedule: Q01DX009 (ip), vehicle: saline + alcohol",0 of 10 and 6 of 10
CSC1SCC2C(=O)N(C)C(C(C)C)C(=O)OCC(NC(=O)c3cnc4ccccc4n3)C(=O)NC(C)C(=O)N(C)C1C(=O)N(C)C(C(C)C)C(=O)OCC(NC(=O)c1cnc3ccccc3n1)C(=O)NC(C)C(=O)N2C (stereo unspecified),T/C,"dose: 8.0 micrograms/kg/injection, schedule: Q01DX009 (ip), vehicle: saline",137 % of control
same,T/C,"dose: 15.0 micrograms/kg/injection, schedule: Q01DX009 (ip), vehicle: saline",146 % of control
same,T/C,"dose: 16.0 micrograms/kg/injection, schedule: Q01DX009 (ip), vehicle: saline",147 % of control
same,T/C,"dose: 30.0 micrograms/kg/injection, schedule: Q01DX009 (ip), vehicle: saline with Tween-80",126 % of control
same,T/C,"dose: 120.0 micrograms/kg/injection, schedule: Q01DX009 (ip), vehicle: saline with Tween-80",138 % of control
same,T/C,"dose: 240.0 micrograms/kg/injection, schedule: Q01DX009 (ip), vehicle: saline with Tween-80",138 % of control
same,survivor count,"dose: 480.0 micrograms/kg/injection, schedule: Q01DX009 (ip), vehicle: saline",6 of 10
C=CC(=O)N1CN(C(=O)C=C)CN(C(=O)C=C)C1,survivor count,[1],0 of 10
Clc1ccc2nnnn2n1,T/C,"dose: 12.5 mg/kg/injection, schedule: Q01DX009 (ip), vehicle: saline with Tween-80",126 % of control
same,T/C,"dose: 100.0 mg/kg/injection, schedule: Q01DX009 (ip), vehicle: saline with Tween-80, evaluated on day 45",134 % of control [9 of 10 alive]
same,T/C,"dose: 100.0 mg/kg/injection, schedule: Q01DX009 (ip), vehicle: saline with Tween-80, evaluated on day 60",137 % of control
same,T/C,[2],134 % of control [8 of 10 alive]
same,survivor count,[2],5 of 10
same,survivor count,[3],"4 of 10, 6 of 10, 7 of 10"
Nc1cc2c3c(cccc3c1)C(=O)N(CCN1CCCC1)C2=O,T/C,[1],138 and 143 % of control
same,T/C,[4],149 % of control
same,survivor count,[5],10 of 10
ClCCCN1CCN(CCCl)CC1,T/C,"dose: 5.0 mg/kg/injection, schedule: Q01DX009 (ip), vehicle: saline","93 [9 of 10 alive], 130, 153, 178 % of control"
same,T/C,"dose: 10.0 mg/kg/injection, schedule: Q01DX009 (ip), vehicle: saline","108, 149, 191, 260 % of control"
same,T/C,[6],106 % of control
same,survivor count,[6],10 of 10
same,survivor count,"dose: 40.0 mg/kg/injection, schedule: Q01DX009 (ip), vehicle: saline","5 of 10, 8 of 10, 10 of 10"
[NH-]C(CCC(N)=O)C(=O)O.[NH-]C(CCC(N)=O)C(=O)O.[Zn+2] (stereo unspecified),survivor count,[5],6 of 10
Cc1cc2c(cc1C)C(=O)c1c(O)c3c(c(O)c1C2=O)C[C@@](O)(C(=O)CO)C[C@@H]3OC1CC(N)C(O)C(C)O1 (stereo partly specified),T/C,"dose: 1.25 mg/kg/injection, schedule: Q01DX001 (ip), vehicle: water",145 % of control
same,survivor count,"dose: 40.0 mg/kg/injection, schedule: Q01DX001 (ip), vehicle: water",3 of 10 and 4 of 10
same,survivor count,"dose: 80.0 mg/kg/injection, schedule: Q01DX001 (ip), vehicle: water",0 of 10
C[C@@H]1C[C@H]2[C@@H]3CCC4=CC(=O)C=C[C@]4(C)[C@@]3(F)[C@@H](O)C[C@]2(C)[C@@]1(O)C(=O)CO,survivor count,"dose: 25.0 mg/kg/injection, schedule: Q01DX009 (ip), vehicle: Klucel (hydroxypropylcellulose) (HPC)",10 of 10
same,survivor count,[7],10 of 10
same,survivor count,"dose: 100.0 mg/kg/injection, schedule: Q01DX009 (ip), vehicle: Klucel (hydroxypropylcellulose) (HPC)",10 of 10
CC(C)OC(=O)c1ccc(C(C)C)cc1,survivor count,[1],9 of 10
CCCCOCN(COCCCC)C12CC3CC(CC(C3)C1)C2,survivor count,[2],7 of 10
same,survivor count,[3],0 of 10
CC(C)C(NC(=O)OC(C)(C)C)C(=O)O (stereo unspecified),survivor count,"dose: 200.0 mg/kg/injection, schedule: Q01DX009 (ip), vehicle: Klucel (hydroxypropylcellulose) (HPC)",10 of 10
same,survivor count,"dose: 400.0 mg/kg/injection, schedule: Q01DX009 (ip), vehicle: Klucel (hydroxypropylcellulose) (HPC)",4 of 9
CN1C(=O)C(=Cc2ccc(O)cc2)C(=O)N(C)C1=O,survivor count,[3],8 of 10
COc1ccc(S(=O)(=O)N=N/C=C2\C=CC=CN2O)cc1OC,T/C,"dose: 12.0 mg/kg/injection, schedule: Q01DX009 (ip), vehicle: saline with Tween-80",130 % of control
same,T/C,[1],127 % of control
same,T/C,[4],147 % of control
same,T/C,[5],140 % of control
COC(C(=O)C(O)C(C)O)C1CC2C=C3C=C(OC4CC(OC5CC(O)C(OC)C(C)O5)C(OC(C)=O)C(C)O4)C(C)C(=O)C3=C(O)C2=C(O)C1OC1CC(OC2CC(OC3CC(C)(O)C(OC(=O)C(C)C)C(C)O3)C(O)C(C)O2)C(O)C(C)O1 (stereo unspecified),T/C,"dose: 31.2 micrograms/kg/injection, schedule: Q01DX009 (ip), vehicle: saline",139 % of control [8 of 10 alive]
same,survivor count,"dose: 125.0 micrograms/kg/injection, schedule: Q01DX009 (ip), vehicle: saline",10 of 10
same,survivor count,"dose: 250.0 micrograms/kg/injection, schedule: Q01DX009 (ip), vehicle: saline",1 of 10
COc1ccc(/C(C#N)=C2\OC(=O)c3ccccc32)cc1OC,survivor count,[5],10 of 10
same,survivor count,[3],10 of 10
CCC(C)c1cnc(CC(C)C)c(=O)n1O (stereo unspecified),survivor count,[2],0 of 10
same,survivor count,[3],0 of 10
CN(Cc1cnc2nc(N)nc(N)c2n1)c1ccc(C(=O)N[C@@H](CCC(=O)O)C(=O)O)cc1,T/C,"dose: 1.0 mg/kg/injection, schedule: Q01DX009 (ip), vehicle: sodium bicarbonate","90, 91 [8 of 10 alive], 93, 96, 96 [8 of 10 alive], 103 % of control"
same,T/C,"dose: 2.0 mg/kg/injection, schedule: Q01DX009 (ip), vehicle: sodium bicarbonate","97, 98, 99 (2×), 104, 105 % of control"
same,T/C,"dose: 4.0 mg/kg/injection, schedule: Q01DX009 (ip), vehicle: sodium bicarbonate","86, 95, 99, 102, 105, 107 % of control"
same,T/C,[8],"93, 94 [9 of 10 alive], 95 [9 of 10 alive], 96, 100 % of control"
same,survivor count,[8],10 of 10
same,T/C,[9],89 [9 of 10 alive] and 101 % of control
same,survivor count,[9],9 of 10 and 10 of 10
Clc1ccccc1C(Nc1cnccn1)Nc1cnccn1,survivor count,[2],10 of 10
same,survivor count,[3],10 of 10
Cc1[nH]ccc2c(C)c3nc4ccccc4c3cc12,T/C,"dose: 12.5 mg/kg/injection, schedule: Q01DX009 (ip), vehicle: Klucel (hydroxypropylcellulose) (HPC)",132 % of control [9 of 10 alive]
same,survivor count,[7],10 of 10
